Measured values published in patent US5504240A, “Borane-hydroxydialkylsulfide borates” (Aldrich Chemical Company, Inc., priority 1995, dated 1996).

How the values were obtained:
[1] = hydroboration of 1-octene; details: neat, room temperature
[2] = exchange of borane with BMS (complexing ability of borate esters), 11B NMR; type: physicochemical; details: BMS and borate ester mixed at 3:1 molar ratio, at equilibrium
[3] = exchange of borane with BH3.THF (complexing ability of borate esters), 11B NMR; type: physicochemical; details: BH3.THF and borate ester mixed at 3:1 molar ratio; THF in large excess, less quantitative
odor = details: hydroxysulfides
[4] = prior art; cited from earlier work

SMILES | HB of 1-octene [1] [min] | exchange, BH3.THF [3] [%] | other results
[BH3-][S+](CCOB(OCC[S+]([BH3-])CCC(C)C)OCC[S+]([BH3-])CCC(C)C)CCC(C)C (centres unmarked) [9b] | 15 | – | –
CC(C)CCSCCOB(OCCSCCC(C)C)OCCSCCC(C)C [8b, Tris 2-(Isoamylthio)ethyl!borate] | – | 67 | exchange, BMS [2]: 0%
[BH3-][S+](CC)CCOCCOB(OCCOCC[S+]([BH3-])CC)OCCOCC[S+]([BH3-])CC (centres unmarked) [9c, tris 2-2-(Ethylthio)ethoxy!ethyl!borate borane adduct (1:3)] | 15 | – | –
CC(C)(C)SCCOCCO [t-BuSCH2 CH2 OCH2 CH2 OH, 2-2-(tert-butylthio)ethoxy!ethanol] | – | – | odor (odor): mild
[BH3-][S+](CCOCCOCCOB(OCCOCCOCC[S+]([BH3-])C(C)(C)C)OCCOCCOCC[S+]([BH3-])C(C)(C)C)C(C)(C)C (centres unmarked) [9g, tris 2-2-2-(tert-Butylthio)ethoxy!ethoxy!ethyl!borate borane adduct (1:3)] | 15 | – | –
[BH3-][S+](CC)CCOCCOCCOB(OCCOCCOCC[S+]([BH3-])CC)OCCOCCOCC[S+]([BH3-])CC (centres unmarked) [9f, tris 2-2-2-(Ethylthio)ethoxy!ethoxy!ethyl!borate borane adduct (1:3)] | 15 | – | –
[BH3-][S+](CCOCCOCCOB(OCCOCCOCC[S+]([BH3-])CCC(C)C)OCCOCCOCC[S+]([BH3-])CCC(C)C)CCC(C)C (centres unmarked) [9h, tris 2-2-2-(Isoamylthio)ethoxy!ethoxy!ethyl!borate borane adduct (1:3)] | 15 | – | –
[BH3-][S+](CCOCCOB(OCCOCC[S+]([BH3-])C(C)(C)C)OCCOCC[S+]([BH3-])C(C)(C)C)C(C)(C)C (centres unmarked) [9d, tris 2-2-(tert-Butylthio)ethoxy!ethyl!borate borane adduct (1:3)] | 15 | – | –
CC(C)CCSCCOCCOCCOB(OCCOCCOCCSCCC(C)C)OCCOCCOCCSCCC(C)C [8h, Tris 2-2-2-(Isoamylthio)ethoxy!ethoxy!ethyl!borate] | – | 66 | –
[BH3-][S+]1CCOCC1 [Borane-1,4-thioxane] | – | – | odor [4]: milder odor than dimethyl sulfide
CSC [dimethyl sulfide] | – | – | odor [4]: very noxious odor
COCCSCCO [H3 COCH2 CH2 SCH2 CH2 OH, 2-(2-methoxyethylthio)ethanol] | – | – | odor (odor): mild
CCSCCOCCO [EtSCH2 CH2 OCH2 CH2 OH, 2-2-(ethylthio)ethoxy!ethanol] | – | – | odor (odor): very mild
[BH3-][S+](CCOCCOB(OCCOCC[S+]([BH3-])CCC(C)C)OCCOCC[S+]([BH3-])CCC(C)C)CCC(C)C (centres unmarked) [9e, tris 2-2-(Isoamylthio)ethoxy!ethyl borate borane adduct (1:3)] | 15 | – | –
CCSCCOCCOCCO [Et--SCH2 CH2 OCH2 CH2 OCH2 CH2 OH, 2-2-2-(ethylthio)ethoxy!ethoxy!ethanol] | – | – | odor (odor): very mild
[BH3-][S+](CCOC)CCOB(OCC[S+]([BH3-])CCOC)OCC[S+]([BH3-])CCOC (centres unmarked) [9i, tris 2-(2-Methoxyethylthio)ethyl!borate borane adduct (1:3)] | 15 | – | –
[BH3-][S+](CCOB(OCC[S+]([BH3-])C(C)(C)C)OCC[S+]([BH3-])C(C)(C)C)C(C)(C)C (centres unmarked) [9a, Tris 2-(tert-Butylthio)ethyl!borate borane adduct (1:3)] | 15 | – | –
CC(C)(C)SCCO [t-BuSCH2 CH2 OH, 2-(tert-butylthio)ethanol] | – | – | odor (odor): mild
CC(C)(C)SCCOCCOB(OCCOCCSC(C)(C)C)OCCOCCSC(C)(C)C [8d, Tris 2-2-(tert-Butylthio)ethoxy!ethyl!borate] | – | 70 | exchange, BMS [2]: 11%
CC(C)(C)SCCOCCOCCO [t-BuSCH2 CH2 OCH2 CH2 OCH2 CH2 OH, 2-2-2-(tert-butylthio)ethoxy!ethoxy!ethanol] | – | – | odor (odor): mild
CCSCCOCCOCCOB(OCCOCCOCCSCC)OCCOCCOCCSCC [8f, Tris 2-2-2-(Ethylthio)ethoxy!ethoxy!ethyl borate] | – | 81 | –
COCCSCCOB(OCCSCCOC)OCCSCCOC [8i, Tris 2-(2-Methoxyethylthio)ethyl!borate] | – | 62 | exchange, BMS [2]: 0%
CC(C)(C)SCCOCCOCCOB(OCCOCCOCCSC(C)(C)C)OCCOCCOCCSC(C)(C)C [8g, Tris 2-2-2-(tert-Butylthio)ethoxy!ethoxy!ethyl!borate] | – | 68 | –
CC(C)(C)SCCOB(OCCSC(C)(C)C)OCCSC(C)(C)C [8a, Tris 2-(tert-butylthio)ethyl!borate] | – | 68 | exchange, BMS [2]: 8%
CC(C)CCSCCOCCOB(OCCOCCSCCC(C)C)OCCOCCSCCC(C)C [8e, Tris 2-2-(Isoamylthio)ethoxy!ethyl!borate] | – | 75 | exchange, BMS [2]: 0%
CCSCCOCCOB(OCCOCCSCC)OCCOCCSCC [8c, Tris 2-2-(Ethylthio)ethoxy!ethyl!borate] | – | 83 | exchange, BMS [2]: 28%

Like-named read-outs stand apart in the source and are kept apart here.
